According to patent US12370168B2 (scPharmaceuticals Inc., priority 2013, dated 2025):
Where two headings read alike, the source gives them in different places.

Key:
[1] = unbuffered, neutral and weakly alkaline solutions
[2] = 8 mg/mL, isosmotic, pH 7-8, short term exposure to light

In the case of `NS(=O)(=O)c1cc(C(=O)O)c(NCc2ccco2)cc1Cl` [Furosemide, 4-chloro-2-(furan-2-ylmethylamino)-5-sulfamoyl-benzoic acid], the rate of dissolution [1] is reported as “quite slow”, the “visual inspection after light exposure” value ([2]; 25 mM Tris) is reported as “dark brown colored solution” and the “visual inspection after light exposure” value ([2]; 50 mM Tris) is reported as “progressively lighter shades of brown”. For the same compound, the “visual inspection after light exposure” value ([2]; 100 mM Tris) was “progressively lighter shades of brown”.
